Test results from article PMC9243173.
These are yes or no findings as the source states them, for the method shown. Binding seen in cells or lysates may run through a third protein. Some entries that bind do so weakly or less than the wild type.

Sequences of proteins named here, by UniProt entry; tags and fusion partners are left off. A change or cut given only in a name is not applied to a line headed by its entry.
UniProt Q9H6Q4: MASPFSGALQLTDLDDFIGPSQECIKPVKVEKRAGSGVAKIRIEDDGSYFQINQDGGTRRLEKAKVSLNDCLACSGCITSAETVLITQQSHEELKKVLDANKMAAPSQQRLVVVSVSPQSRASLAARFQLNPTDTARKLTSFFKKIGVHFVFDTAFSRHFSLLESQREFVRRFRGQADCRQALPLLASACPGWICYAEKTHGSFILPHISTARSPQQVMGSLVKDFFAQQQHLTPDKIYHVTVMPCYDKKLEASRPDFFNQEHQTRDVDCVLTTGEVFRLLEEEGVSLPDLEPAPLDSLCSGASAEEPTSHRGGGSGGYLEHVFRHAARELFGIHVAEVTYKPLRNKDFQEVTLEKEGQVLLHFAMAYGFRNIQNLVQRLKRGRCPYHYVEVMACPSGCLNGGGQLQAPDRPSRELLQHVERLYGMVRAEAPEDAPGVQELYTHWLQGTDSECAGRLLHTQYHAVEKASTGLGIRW

Key:
[1] = biological target: 3HA-3FLAG-CIAO3, wildtype (human) (UniProt Q9H6Q4); experiment: co-IP; anti-HA beads on whole cell extracts of Flp-In 293 cells expressing the 3HA-3FLAG-tagged bait (NUBP2, CIAO3 wildtype or S161I, ERCC2 wildtype or mutant); 100 mM Tris-HCl pH 8.0, 150 mM NaCl, 5% glycerol, 0.1% NP-40, 4 °C; immunoblot of endogenous partners; cells untreated or treated with FAC, DFO (3 or 8 h), tBHP (4 h), 1% O2 (16 h), nontarget siRNA or 1% formaldehyde
[2] = biological target: 3HA-3FLAG-CIAO3-S161I (human) (UniProt Q9H6Q4); experiment: as above

| Binder | binding [1] | binding [2] |
| --- | --- | --- |
| nucleotide-binding protein 2 (NUBP2), endogenous (protein, UniProt Q9Y5Y2 1-271) MEAAAEPGNLAGVRHIILVLSGKGGVGKSTISTELALALRHAGKKVGILDVDLCGPSIPRMLGAQGRAVHQCDRGWAPVFLDREQSISLMSVGFLLEKPDEAVVWRGPKKNALIKQFVSDVAWGELDYLVVDTPPGTSDEHMATIEALRPYQPLGALVVTTPQAVSVGDVRRELTFCRKTGLRVMGIVENMSGFTCPHCTECTSVFSRGGGEELAQLAGVPFLGSVPLDPALMRTLEEGHDFIQEFPGSPAFAALTSIAQKILDATPACLP | binds | binds weakly |
| nucleotide-binding protein 1 (NUBP1) (protein, UniProt P53384 1-320) MEEVPHDCPGADSAQAGRGASCQGCPNQRLCASGAGATPDTAIEEIKEKMKTVKHKILVLSGKGGVGKSTFSAHLAHGLAEDENTQIALLDIDICGPSIPKIMGLEGEQVHQSGSGWSPVYVEDNLGVMSVGFLLSSPDDAVIWRGPKKNGMIKQFLRDVDWGEVDYLIVDTPPGTSDEHLSVVRYLATAHIDGAVIITTPQEVSLQDVRKEINFCRKVKLPIIGVVENMSGFICPKCKKESQIFPPTTGGAELMCQDLEVPLLGRVPLDPLIGKNCDKGQSFFIDAPDSPATLAYRSIIQRIQEFCNLHQSKEENLISS | binds | binds weakly |
| CDKAL1 (protein, UniProt Q5VV42 1-579) MPSASCDTLLDDIEDIVSQEDSKPQDRHFVRKDVVPKVRRRNTQKYLQEEENSPPSDSTIPGIQKIWIRTWGCSHNNSDGEYMAGQLAAYGYKITENASDADLWLLNSCTVKNPAEDHFRNSIKKAQEENKKIVLAGCVPQAQPRQDYLKGLSIIGVQQIDRVVEVVEETIKGHSVRLLGQKKDNGRRLGGARLDLPKIRKNPLIEIISINTGCLNACTYCKTKHARGNLASYPIDELVDRAKQSFQEGVCEIWLTSEDTGAYGRDIGTNLPTLLWKLVEVIPEGAMLRLGMTNPPYILEHLEEMAKILNHPRVYAFLHIPVQSASDSVLMEMKREYCVADFKRVVDFLKEKVPGITIATDIICGFPGETDQDFQETVKLVEEYKFPSLFINQFYPRPGTPAAKMEQVPAQVKKQRTKDLSRVFHSYSPYDHKIGERQQVLVTEESFDSKFYVAHNQFYEQVLVPKNPAFMGKMVEVDIYESGKHFMKGQPVSDAKVYTPSISKPLAKGEVSGLTKDFRNGLGNQLSSGSHTSAASQCDSASSRMVLPMPRLHQDCALRMSVGLALLGLLFAFFVKVYN | – | binds |
